One molecule from publication PMC7221574 (Molecules, 2020) can be followed below.

What is called IC50 is the concentration that gives 50% inhibition.

What all share (type): cell-based
One assay has as its system BALB/3T3. As to the kind of experiment: In vitro antiproliferative activity, SRB assay, normal fibroblasts BALB/3T3. The following applies: Mus musculus, normal murine embryonic fibroblasts, 72 h, mean ± SD. The procedure: (§1) The A549 cell line was purchased from the European Collection of Authenticated Cell Cultures (ECACC, Salisbury, UK). The MCF-7, LoVo and LoVo/DX cell lines was purchased from American Type Culture Collection (ATCC, Manassas, VA, USA). All the cell lines are maintained in the Institute of Immunology and Experimental Therapy (IIET), Wroclaw, Poland.
(§2) Human lung adenocarcinoma cell line was cultured in a mixture of OptiMEM and RPMI 1640 (1:1) medium (IIET, Wroclaw, Poland), supplemented with 5% fetal bovine serum HyClone (GE Healthcare, USA) and 2 mM L-glutamine (Sigma-Aldrich, Germany). Human breast adenocarcinoma cell line was cultured in a mixture of Eagle medium (IIET, Wroclaw, Poland), supplemented with 10% fetal bovine serum, 2 mM L-glutamine, 8 μg/mL insulin and 1% amino acids (Sigma-Aldrich, Germany). […]
(§3) After 72 h of incubation with the tested compounds, the cells were fixed in situ by gently adding of 50 μL per well of cold 50% trichloroacetic acid TCA (POCh, Poland) and were incubated at room temperature for one hour. […] Absorbance of each solution was read from a Synergy H4 Hybrid Multi-Mode Microplate Reader (BioTek Instruments, USA) at the 540 nm wavelength.
On the technique in general: Sulforhodamine B stains cellular protein and so reports cell mass.

The next assay concerns A549. Nature of the assay: In vitro antiproliferative activity, SRB assay, A549. The following applies: Homo sapiens, A549, 72 h, human lung adenocarcinoma, mean ± SD. The procedure: as §1, §2, §3
For another assay, the system named is LoVo. As to the kind of experiment: In vitro antiproliferative activity, SRB assay, LoVo. The following applies: Homo sapiens, 72 h, human colon adenocarcinoma, mean ± SD. The procedure:
as §1, §2, §3

For another assay, the system named is MCF-7. Nature of the assay: In vitro antiproliferative activity, SRB assay, MCF-7. To be noted: Homo sapiens, MCF7, 72 h, human breast adenocarcinoma, mean ± SD. The procedure:
as §1, §2, §3

`COc1cc2c(c(OC)c1OC)-c1ccc(OC)c(=O)cc1[C@@H](NC(C)=O)CC2` [Compound 1, colchicine, reference compound]: the IC50 in the assay on BALB/3T3 turned out to be 115 ± 36.8 nM; with A549 it was 115 ± 23.6 nM; in the assay with LoVo, 17.5 ± 2.5 nM; in the assay on MCF-7, 22.6 ± 1.3 nM.
